# Assay results as given in the supplement of paper PMC10032668.
# Protein sequences, listed by entry. Tags and fused reporters are not part of them.
# LRPAP1, P30533, UniProt P30533, whole entry: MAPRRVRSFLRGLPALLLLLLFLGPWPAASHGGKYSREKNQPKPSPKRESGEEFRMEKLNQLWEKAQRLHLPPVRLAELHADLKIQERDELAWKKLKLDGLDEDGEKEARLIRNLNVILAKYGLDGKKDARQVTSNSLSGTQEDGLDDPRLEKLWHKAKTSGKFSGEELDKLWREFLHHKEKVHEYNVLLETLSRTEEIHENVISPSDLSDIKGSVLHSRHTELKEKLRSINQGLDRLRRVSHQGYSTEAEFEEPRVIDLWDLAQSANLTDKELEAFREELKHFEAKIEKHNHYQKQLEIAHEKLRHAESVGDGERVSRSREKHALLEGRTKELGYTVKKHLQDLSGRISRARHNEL
# MAPK1, P28482, UniProt P28482, whole entry: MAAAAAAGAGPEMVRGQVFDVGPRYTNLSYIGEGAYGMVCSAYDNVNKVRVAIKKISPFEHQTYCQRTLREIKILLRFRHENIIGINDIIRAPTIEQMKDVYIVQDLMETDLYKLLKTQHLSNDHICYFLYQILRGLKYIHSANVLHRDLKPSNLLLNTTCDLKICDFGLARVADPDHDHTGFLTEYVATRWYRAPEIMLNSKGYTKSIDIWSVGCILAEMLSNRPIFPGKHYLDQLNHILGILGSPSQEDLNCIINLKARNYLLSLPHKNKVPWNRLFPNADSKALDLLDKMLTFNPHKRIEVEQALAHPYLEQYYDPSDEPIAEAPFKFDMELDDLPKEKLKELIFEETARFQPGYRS
# MORF4L1, Q9UBU8, UniProt Q9UBU8, whole entry: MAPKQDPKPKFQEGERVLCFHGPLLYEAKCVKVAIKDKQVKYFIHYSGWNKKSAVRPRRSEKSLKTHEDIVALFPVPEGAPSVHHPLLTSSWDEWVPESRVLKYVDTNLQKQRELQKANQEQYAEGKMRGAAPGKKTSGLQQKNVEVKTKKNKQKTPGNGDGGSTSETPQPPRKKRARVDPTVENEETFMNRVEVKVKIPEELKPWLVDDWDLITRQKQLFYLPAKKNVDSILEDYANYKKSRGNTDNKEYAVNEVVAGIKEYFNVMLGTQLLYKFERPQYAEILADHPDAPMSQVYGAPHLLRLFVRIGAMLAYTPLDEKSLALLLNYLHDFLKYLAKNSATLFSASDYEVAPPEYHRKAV
# MORF4L2, Q15014, UniProt Q15014, whole entry: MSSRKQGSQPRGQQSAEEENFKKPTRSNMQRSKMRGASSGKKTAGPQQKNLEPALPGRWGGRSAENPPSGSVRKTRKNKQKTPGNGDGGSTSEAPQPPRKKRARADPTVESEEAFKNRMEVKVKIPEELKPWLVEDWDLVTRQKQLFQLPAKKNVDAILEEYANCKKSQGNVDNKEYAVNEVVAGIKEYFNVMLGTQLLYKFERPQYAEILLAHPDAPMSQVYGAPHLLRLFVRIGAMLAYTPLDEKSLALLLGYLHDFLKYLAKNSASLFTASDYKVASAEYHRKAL
# MPG, P29372, UniProt P29372, whole entry: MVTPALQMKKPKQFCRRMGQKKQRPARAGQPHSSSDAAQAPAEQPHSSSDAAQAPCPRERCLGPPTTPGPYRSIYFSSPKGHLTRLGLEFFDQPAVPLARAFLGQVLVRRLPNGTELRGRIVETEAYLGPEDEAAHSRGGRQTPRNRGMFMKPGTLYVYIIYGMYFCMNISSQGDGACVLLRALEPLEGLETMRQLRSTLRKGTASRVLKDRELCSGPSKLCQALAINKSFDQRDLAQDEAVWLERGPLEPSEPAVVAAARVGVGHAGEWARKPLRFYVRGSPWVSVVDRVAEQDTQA
# NUTF2, P61970, UniProt P61970, whole entry: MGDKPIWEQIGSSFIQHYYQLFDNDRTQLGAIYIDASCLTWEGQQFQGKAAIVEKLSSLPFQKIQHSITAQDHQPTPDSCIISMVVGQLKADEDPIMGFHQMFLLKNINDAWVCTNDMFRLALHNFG
# PDLIM7, Q9NR12, UniProt Q9NR12, whole entry: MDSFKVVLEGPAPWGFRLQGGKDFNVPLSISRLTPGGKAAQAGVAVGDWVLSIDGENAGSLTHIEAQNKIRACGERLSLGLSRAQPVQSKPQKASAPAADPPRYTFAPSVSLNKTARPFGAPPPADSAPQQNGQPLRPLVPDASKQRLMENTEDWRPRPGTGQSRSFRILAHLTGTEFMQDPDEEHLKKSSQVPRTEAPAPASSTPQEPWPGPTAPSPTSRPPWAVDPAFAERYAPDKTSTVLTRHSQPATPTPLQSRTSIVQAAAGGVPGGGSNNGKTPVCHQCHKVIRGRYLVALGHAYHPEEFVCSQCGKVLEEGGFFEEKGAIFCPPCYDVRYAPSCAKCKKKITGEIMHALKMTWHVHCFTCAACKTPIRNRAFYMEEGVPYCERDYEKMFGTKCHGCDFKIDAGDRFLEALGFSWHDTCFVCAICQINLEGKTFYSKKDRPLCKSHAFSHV
# PIN1, Q13526, UniProt Q13526, whole entry: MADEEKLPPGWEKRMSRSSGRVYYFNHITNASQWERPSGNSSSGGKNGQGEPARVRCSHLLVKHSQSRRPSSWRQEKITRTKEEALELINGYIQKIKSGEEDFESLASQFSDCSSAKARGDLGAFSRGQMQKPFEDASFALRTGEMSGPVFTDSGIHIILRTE
# PIN4, Q9Y237, UniProt Q9Y237, whole entry: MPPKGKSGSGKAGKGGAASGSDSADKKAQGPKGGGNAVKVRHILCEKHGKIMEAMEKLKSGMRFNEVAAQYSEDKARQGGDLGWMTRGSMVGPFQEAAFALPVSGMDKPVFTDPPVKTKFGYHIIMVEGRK
# PLK1, P53350, UniProt P53350, whole entry: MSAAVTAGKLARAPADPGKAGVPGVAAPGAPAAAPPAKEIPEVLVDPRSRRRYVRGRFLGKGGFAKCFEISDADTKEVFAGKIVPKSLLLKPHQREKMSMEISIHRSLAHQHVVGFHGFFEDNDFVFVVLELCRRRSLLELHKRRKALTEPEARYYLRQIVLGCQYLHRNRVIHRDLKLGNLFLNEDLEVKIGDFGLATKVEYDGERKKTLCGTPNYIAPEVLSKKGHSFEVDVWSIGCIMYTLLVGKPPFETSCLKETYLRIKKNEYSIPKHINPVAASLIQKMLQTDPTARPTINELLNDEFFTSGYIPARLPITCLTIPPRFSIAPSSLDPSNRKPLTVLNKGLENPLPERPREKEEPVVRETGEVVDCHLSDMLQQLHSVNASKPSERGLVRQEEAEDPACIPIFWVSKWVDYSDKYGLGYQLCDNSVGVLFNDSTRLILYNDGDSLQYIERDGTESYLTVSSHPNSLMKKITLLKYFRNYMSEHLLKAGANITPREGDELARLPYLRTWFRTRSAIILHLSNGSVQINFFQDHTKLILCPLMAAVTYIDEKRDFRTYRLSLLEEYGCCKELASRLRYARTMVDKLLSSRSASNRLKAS
# ± gives the standard deviation of the averaged measurements. The list shows a part of the results. Only hits are listed; about a third recur on repeated control peptides.
# Legend:
# Assay in all cases: PRISMA enrichment of interactor (LFQ) in peptide spot vs all other peptide spots (log2 fold change); higher = stronger / more specific binding of the interactor to the peptide
# LRPAP1, P30533 = biological target: LRPAP1, P30533
# Procedure: (§1)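 PRISMA: 221 full-length sORF-encoded peptides (3-15 aa), plus SOS1/GLUT1 control peptides, were spot-synthesized on cellulose membranes in triplicate. Membranes were incubated with HEK293T lysate, and bound proteins were identified by LC-MS/MS with LFQ. Enrichment is the log2 fold change versus all other peptide spots; only significant interactors are listed (cutoff c=6, x0=2.8).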
# LSM14A, Q8ND56 = biological target: LSM14A, Q8ND56
# Procedure: as §1
# LSM14B, Q9BX40 = biological target: LSM14B, Q9BX40
# Procedure: as §1
# MACF1 = biological target: MACF1
# Procedure: as §1
# MAP7D1, Q3KQU3 = biological target: MAP7D1, Q3KQU3
# Procedure: as §1
# MAPK1, P28482 = biological target: MAPK1, P28482
# Procedure: as §1
# MAPK1IP1L, Q8NDC0 = biological target: MAPK1IP1L, Q8NDC0
# Procedure: as §1
# MAZ, P56270 = biological target: MAZ, P56270
# Procedure: as §1
# MBNL1, Q9NR56 = biological target: MBNL1, Q9NR56
# Procedure: as §1
# MCM3, P25205 = biological target: MCM3, P25205
# Procedure: as §1
# MCM5, P33992 = biological target: MCM5, P33992
# Procedure: as §1
# METTL26, Q96S19 = biological target: METTL26, Q96S19
# Procedure: as §1
# MMACHC, Q9Y4U1 = biological target: MMACHC, Q9Y4U1
# Procedure: as §1
# MORF4L1, Q9UBU8 = biological target: MORF4L1, Q9UBU8
# Procedure: as §1
# MORF4L2, Q15014 = biological target: MORF4L2, Q15014
# Procedure: as §1
# MPG, P29372 = biological target: MPG, P29372
# Procedure: as §1
# MPP1, Q00013 = biological target: MPP1, Q00013
# Procedure: as §1
# MRRF, Q96E11 = biological target: MRRF, Q96E11
# Procedure: as §1
# NMD3, Q96D46 = biological target: NMD3, Q96D46
# Procedure: as §1
# NME4, O00746 = biological target: NME4, O00746
# Procedure: as §1
# [1] = substrate: NONO, Q15233
# Procedure: as §1
# [2] = substrate: NOSIP, Q9Y314
# Procedure: as §1
# NTHL1, P78549 = biological target: NTHL1, P78549
# Procedure: as §1
# NUDT16L1, Q9BRJ7 = biological target: NUDT16L1, Q9BRJ7
# Procedure: as §1
# NUFIP2, Q7Z417 = biological target: NUFIP2, Q7Z417
# Procedure: as §1
# NUSAP1, Q9BXS6 = biological target: NUSAP1, Q9BXS6
# Procedure: as §1
# NUTF2, P61970 = biological target: NUTF2, P61970
# Procedure: as §1
# NXF1, Q9UBU9 = biological target: NXF1, Q9UBU9
# Procedure: as §1
# PAK4, O96013 = biological target: PAK4, O96013
# Procedure: as §1
# PCLAF, Q15004 = biological target: PCLAF, Q15004
# Procedure: as §1
# [3] = substrate: PCNP, Q8WW12
# Procedure: as §1
# PDCD6, O75340 = biological target: PDCD6, O75340
# Procedure: as §1
# PDLIM7, Q9NR12 = biological target: PDLIM7, Q9NR12
# Procedure: as §1
# PICALM, Q13492 = biological target: PICALM, Q13492
# Procedure: as §1
# PIN1, Q13526 = biological target: PIN1, Q13526
# Procedure: as §1
# PIN4, Q9Y237 = biological target: PIN4, Q9Y237
# Procedure: as §1
# PINX1, Q96BK5 = biological target: PINX1, Q96BK5
# Procedure: as §1
# PLK1, P53350 = biological target: PLK1, P53350
# Procedure: as §1
# POLDIP3, Q9BY77 = biological target: POLDIP3, Q9BY77
# Procedure: as §1
# POLRMT, O00411 = biological target: POLRMT, O00411
# Procedure: as §1
# [4] = substrate: PPIF, P30405
# Procedure: as §1
binder,measurement,setting,value
MMFWTEF [SH3D19],PRISMA enrichment of interactor (log2),"LRPAP1, P30533",5.12
same,PRISMA enrichment of interactor (log2),"LSM14A, Q8ND56",6.37
same,PRISMA enrichment of interactor (log2),"LSM14B, Q9BX40",5.54
same,PRISMA enrichment of interactor (log2),MACF1,5.03
same,PRISMA enrichment of interactor (log2),"MAP7D1, Q3KQU3",3.9
same,PRISMA enrichment of interactor (log2),"MAPK1, P28482",4.69
same,PRISMA enrichment of interactor (log2),"MAPK1IP1L, Q8NDC0",4.39
same,PRISMA enrichment of interactor (log2),"MAZ, P56270",5.65 ± 1.8
same,PRISMA enrichment of interactor (log2),"MBNL1, Q9NR56",6.46
same,PRISMA enrichment of interactor (log2),"MCM3, P25205",5.07
same,PRISMA enrichment of interactor (log2),"MCM5, P33992",5.28
same,PRISMA enrichment of interactor (log2),"METTL26, Q96S19",4.36
same,PRISMA enrichment of interactor (log2),"MMACHC, Q9Y4U1",3.9
same,PRISMA enrichment of interactor (log2),"MORF4L1, Q9UBU8",5.24
same,PRISMA enrichment of interactor (log2),"MORF4L2, Q15014",7.33
same,PRISMA enrichment of interactor (log2),"MPG, P29372",6.83
same,PRISMA enrichment of interactor (log2),"MPP1, Q00013",4.05
same,PRISMA enrichment of interactor (log2),"MRRF, Q96E11",5.7
same,PRISMA enrichment of interactor (log2),"NMD3, Q96D46",5.2
same,PRISMA enrichment of interactor (log2),"NME4, O00746",5.57
same,PRISMA enrichment of interactor (log2),[1],5.71
same,PRISMA enrichment of interactor (log2),[2],6.99
same,PRISMA enrichment of interactor (log2),"NTHL1, P78549",5.31
same,PRISMA enrichment of interactor (log2),"NUDT16L1, Q9BRJ7",5.58
same,PRISMA enrichment of interactor (log2),"NUFIP2, Q7Z417",4.64
same,PRISMA enrichment of interactor (log2),"NUSAP1, Q9BXS6",5.5
same,PRISMA enrichment of interactor (log2),"NUTF2, P61970",5.01
same,PRISMA enrichment of interactor (log2),"NXF1, Q9UBU9",7.24
same,PRISMA enrichment of interactor (log2),"PAK4, O96013",4.38
same,PRISMA enrichment of interactor (log2),"PCLAF, Q15004",4.82
same,PRISMA enrichment of interactor (log2),[3],5.89
same,PRISMA enrichment of interactor (log2),"PDCD6, O75340",5.38
same,PRISMA enrichment of interactor (log2),"PDLIM7, Q9NR12",5.23
same,PRISMA enrichment of interactor (log2),"PICALM, Q13492",6.07
same,PRISMA enrichment of interactor (log2),"PIN1, Q13526",5.25
same,PRISMA enrichment of interactor (log2),"PIN4, Q9Y237",5.41
same,PRISMA enrichment of interactor (log2),"PINX1, Q96BK5",6.32
same,PRISMA enrichment of interactor (log2),"PLK1, P53350",7.12
same,PRISMA enrichment of interactor (log2),"POLDIP3, Q9BY77",6.11
same,PRISMA enrichment of interactor (log2),"POLRMT, O00411",5.67
same,PRISMA enrichment of interactor (log2),[4],6.21

# 2 entries picked at random from those above, as already listed:
binder,measurement,setting,value
MMFWTEF [SH3D19],PRISMA enrichment of interactor (log2),"LSM14B, Q9BX40",5.54
same,PRISMA enrichment of interactor (log2),"MAP7D1, Q3KQU3",3.9
